Patent US20200002432A1, “ANTI-CD98 ANTIBODIES AND ANTIBODY DRUG CONJUGATES” (AbbVie Inc., priority 2016, published 2020)
Substitutions are numbered along the chain they refer to. At least one read-out could not be matched to a standard name with certainty.

B1: huAb103: humanized framework engineered anti-CD98 antibody; heavy chain variable SEQ ID NO: 109, light chain variable SEQ ID NO: 107 (antibody, V domains shown)
VH: EVQLVESGGGLVKPGGSLRLSCATSGFTFIDYYMSWVRQAPGKGLEWLGFIRNKAYGYTTEYSASVKGRFTISRDNSKSILYLQMNSLKTEDTAVYYCTRDRPAWFVYWGQGTLVTVSS
VL: DIVMTQTPLSLPVTPGEPASISCKSSQSLLYSSNQKNYLAWYLQKPGQSPQLLIYWASTRESGVPDRFSGSGSGTDFTLKISRVEAEDVGVYYCQQYYSYPYTFGGGTKVEIK
B2: huAb105: humanized framework engineered anti-CD98 antibody; heavy chain variable SEQ ID NO: 111, light chain variable SEQ ID NO: 112 (antibody, V domains shown)
VH: EVQLVESGGGLVQPGGSLRLSCAASGFTFSDYTMAWVRQAPGKGLEWVATIIYSGRGTYYRDAVKGRFTISRDNAKNTLYLQMNSLRAEDTAVYYCARQSDHTYYYWGYFDYWGQGTMVTVSS
VL: B1 VL with S22N, Y31F, S33G, E61Q, V91I, S99D, Y100V, G106Q, V110L
B3: huAb107: humanized framework engineered anti-CD98 antibody; heavy chain variable SEQ ID NO: 114, light chain variable SEQ ID NO: 112 (antibody, V domains shown)
VH: B2 VH with H102D
VL: B1 VL with S22N, Y31F, S33G, E61Q, V91I, S99D, Y100V, G106Q, V110L
B4: huAb109: humanized framework engineered anti-CD98 antibody; heavy chain variable SEQ ID NO: 116, light chain variable SEQ ID NO: 117 (antibody, V domains shown)
VH: B2 VH with S54D, G55A, H102D
VL: B1 VL with S22N, Y31F, S33G, E61Q, V91I, Y100S, G106Q, V110L
B5: huAb101: humanized framework engineered anti-CD98 antibody; heavy chain variable SEQ ID NO: 106, light chain variable SEQ ID NO: 107 (antibody, V domains shown)
VH: B1 VH with Y56N, G57R
VL: B1 VL

test: Conjugation of anti-CD98 mAbs with Bcl-xL inhibitor synthons (precipitation, recovery, conjugation behaviour); assay type: physicochemical; details: synthon CZ conjugation, Method E; recovery estimated based on concentration

First: B1
Second: B2
The “Estimated Recovery %” value of the first is higher: 79% for the first, 30% for the second.

Compared with B3, B4 is higher in “Estimated Recovery %” value: 39% for the first, 48% for the second.

With B5 the “Estimated Recovery %” value was 71%.

same assay, conditions: synthon TX conjugation, Method E; recovery estimated based on concentration

Going from B1 to B2, the “Estimated Recovery %” value falls from 54% to 18%.

Compared with B3, B4 is lower in “Estimated Recovery %” value: 51% for the first, 45% for the second.

For B5, the “Estimated Recovery %” value was 46%.
